Earlier results as cited in patent US20140171436A1, “TREATMENT OF ANTIFOLATE NEUROTOXICITY” (Syntrix Biosystems, Inc., priority 2003, published 2014).

Target: NMDA receptor
Conditions: read-out: Ki NMDAR; cited from earlier work

O=C(CCCN1CCC(O)(c2ccc(Cl)cc2)CC1)c1ccc(F)cc1 [Haloperidol]
Ki: 48 µM
